For the test, the target named is T1, HA-tagged human sodium taurocholate cotransporting polypeptide (HA-hNTCP), stably expressed in HepG2 cells (human) (UniProt Q14973).
T1 sequence: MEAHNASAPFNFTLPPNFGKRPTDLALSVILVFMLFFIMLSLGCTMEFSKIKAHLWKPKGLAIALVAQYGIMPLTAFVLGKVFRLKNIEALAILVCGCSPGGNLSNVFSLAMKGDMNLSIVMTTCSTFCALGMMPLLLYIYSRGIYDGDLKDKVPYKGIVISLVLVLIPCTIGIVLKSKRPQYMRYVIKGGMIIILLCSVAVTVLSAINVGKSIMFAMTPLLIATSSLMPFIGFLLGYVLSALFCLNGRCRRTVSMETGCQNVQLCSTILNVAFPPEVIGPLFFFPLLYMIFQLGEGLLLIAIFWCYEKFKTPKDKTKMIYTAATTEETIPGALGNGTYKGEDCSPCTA
Kind of test: affinity purification with mass spectrometry; total lysates of HepG2 cells expressing HA-hNTCP or parental cells, immunoprecipitation with anti-HA coupled beads, label-free quantitative LC-MS/MS, N = 4.

These are yes or no findings as the source states them, for the method shown. In cells and extracts the contact can be indirect. A yes stands for co-enrichment or nearness to the bait. Other partners may have been found. Sequences can lack the tags named with a protein.

B1: chloride channel CLIC-like 1 (CLCC1), endogenous in HepG2 cells (protein, UniProt Q96S66 19-551)
chain: HDDDWIDPTDMLNYDAASGTMRKSQAKYGISGEKDVSPDLSCADEISECYHKLDSLTYKIDECEKKKREDYESQSNPVFRRYLNKILIEAGKLGLPDENKGDMHYDAEIILKRETLLEIQKFLNGEDWKPGALDDALSDILINFKFHDFETWKWRFEDSFGVDPYNVLMVLLCLLCIVVLVATELWTYVRWYTQLRRVLIISFLFSLGWNWMYLYKLAFAQHQAEVAKMEPLNNVCAKKMDWTGSIWEWFRSSWTYKDDPCQKYYELLLVNPIWLVPPTKALAVTFTTFVTEPLKHIGKGTGEFIKALMKEIPALLHLPVLIIMALAILSFCYGAGKSVHVLRHIGGPESEPPQALRPRDRRRQEEIDYRPDGGAGDADFHYRGQMGPTEQGPYAKTYEGRREILRERDVDLRFQTGNKSPEVLRAFDVPDAEAREHPTVVPSHKSPVLDTKPKETGGILGEGTPKESSTESSQSAKPVSGQDTSGNTEGSPAAEKAQLKSEAAGSPDQGSTYSPARGVAGPRGQDPVSSPCG
B1: the binding entry is “binds”.

B2: stomatin, endogenous in HepG2 cells (protein, UniProt P27105 1-288)
chain: MAEKRHTRDSEAQRLPDSFKDSPSKGLGPCGWILVAFSFLFTVITFPISIWMCIKIIKEYERAIIFRLGRILQGGAKGPGLFFILPCTDSFIKVDMRTISFDIPPQEILTKDSVTISVDGVVYYRVQNATLAVANITNADSATRLLAQTTLRNVLGTKNLSQILSDREEIAHNMQSTLDDATDAWGIKVERVEIKDVKLPVQLQRAMAAEAEASREARAKVIAAEGEMNASRALKEASMVITESPAALQLRYLQTLTTIAAEKNSTIVFPLPIDMLQGIIGAKHSHLG
Consider B2, for which the binding entry is “binds”.

The values are drawn from paper PMC7226988.
